In PubChem BioAssay AID1487 (National Center for Advancing Translational Sciences (NCATS), 2009):
This is one part of the list. Shown are side measurements of this screen, not its main read-out; they come without a call. Compounds called inactive in the main read-out are mostly missing here. Potencies come from curve fits of mixed quality, noted in brackets.

Assay: qHTS Assay for Modulators of Lamin A Splicing
Conditions: HeLa LMNA splicing GFP/RFP minigene ratio, 48 h
Summary of the method: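 Read-out is the ratio of GFP to DsRed2 object intensity, acquired by 488 nm laser-scanning cytometry on HeLa lamin A-EGFP minigene reporter cells. Compound incubation 48 hrs at 37 °C in Opti-MEM with 2% FBS; DMSO 0.5% final.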

[1] = measured here: RFP viability control channel
[2] = measured here: GFP splicing reporter channel

SMILES | AC50 [1] | AC50 [2]
Cc1ccc(/C=C/c2onc(C)c2S(=O)(=O)N2CCC(C(=O)N3CCN(c4ccccc4F)CC3)CC2)cc1 | 1.58 µM [falling, full curve] | 
CC(Oc1ncnc2ccccc12)C(=O)Nc1cccc(S(=O)(=O)N2CCOCC2)c1 (configuration not stated) | 17.8 µM [rising, single point] | 22.4 µM [rising, single point]
Cc1ccccc1Cc1c(C)nc2c(C(=O)NCc3ccco3)cnn2c1C | 5.62 µM [falling, single point] | 
COC(=O)c1ccccc1NC(=O)CSc1nc2ccccc2c(=O)[nH]1 | 15.8 µM [rising, single point] | 
CCOc1ccccc1CN1CCc2nc(Nc3ccc4c(c3)OCCO4)ncc2C1 |  | 14.1 µM [falling, single point]
COc1ccc(OC)c(NC(=O)CSc2nnc(CNc3ccc(F)cc3)o2)c1 | 3.55 µM [rising, partial curve, poor fit] | 
COc1ccc(-c2noc(CCC(=O)Nc3cccnc3)n2)cc1OC | 14.1 µM [rising, partial curve] | 15.8 µM [rising, partial curve]
Cc1ccc(-c2cc(NC(=O)CCl)n(-c3ccccc3)n2)cc1 | 0.282 µM [rising, partial curve, poor fit] | 35.5 µM [falling, single point]
Cc1ccc(NC(=O)Cn2cnc3sc(C(=O)NCCN(C)C)c(C)c3c2=O)cc1Cl | 12.6 µM [rising, single point] | 
CC(Nc1cccnc1)=C(C#N)C#N | 12.6 µM [rising, partial curve] | 
COC(=O)Cc1cc(=O)[nH]c(/N=C(\N)Nc2ccc(C(C)C)cc2)n1 |  | 0.355 µM [rising, full curve, poor fit]
O=C(NC(=S)NC1CCCCCC1)c1cncc(Br)c1 | 5.62 µM [rising, partial curve, poor fit] | 14.1 µM [rising, partial curve]
Cc1occc1C(=O)NC1CCCCCCC1 | 17.8 µM [rising, single point] | 
CC(C)NC(=O)CN(C(=O)CCC(=O)Nc1ccccn1)c1ccc(F)c(Cl)c1 | 39.8 µM [rising, partial curve, poor fit] | 
CCC(C)n1c(NC(=O)c2ccccc2)c(C#N)c2nc3ccccc3nc21 (configuration not stated) | 22.4 µM [falling, single point] | 
COC(=O)c1cn(NC(=O)Cc2ccc(Cl)c(Cl)c2)c(=O)c2ccccc12 | 20 µM [rising, single point] | 12.6 µM [rising, single point]
COc1cc(C2CC(c3cccnc3)=NN2c2ccc(F)cc2)cc(OC)c1OC (configuration not stated) | 31.6 µM [rising, single point] | 
Cc1nc(N2CCC3(CC2)OCCO3)c2nnn(Cc3ccccc3F)c2n1 | 11.2 µM [rising, single point] | 10 µM [rising, partial curve]

Three consecutive entries already listed, for reference:
SMILES | AC50 [1] | AC50 [2]
COC(=O)c1cn(NC(=O)Cc2ccc(Cl)c(Cl)c2)c(=O)c2ccccc12 | 20 µM [rising, single point] | 12.6 µM [rising, single point]
COc1cc(C2CC(c3cccnc3)=NN2c2ccc(F)cc2)cc(OC)c1OC (configuration not stated) | 31.6 µM [rising, single point] | 
Cc1nc(N2CCC3(CC2)OCCO3)c2nnn(Cc3ccccc3F)c2n1 | 11.2 µM [rising, single point] | 10 µM [rising, partial curve]

Additional records

SMILES | AC50 [1] | AC50 [2]
O=C(/C=C/c1cccc([N+](=O)[O-])c1)NCCSCc1ccc(Cl)cc1Cl | 31.6 µM [rising, single point] | 
Cc1ccc(-c2cc(-c3n[nH]c(=S)o3)c3ccccc3n2)cc1 | 0.00355 µM [falling, full curve, poor fit] | 
Cc1ccc(-c2nnc(CSc3nnc(COc4cccc5ccccc45)n3-c3ccccc3)o2)cc1 | 12.6 µM [rising, partial curve] | 
COc1cccc(-c2ccc3ncnc(NCc4cccs4)c3c2)c1 | 22.4 µM [falling, partial curve] | 15.8 µM [falling, partial curve]
COc1cccc(OCC(=O)O)c1 | 0.0501 µM [falling, full curve, poor fit] | 0.282 µM [falling, full curve, poor fit]
C=CCNc1ncnc2c1ncn2C1OC(CO)C(O)C1O (configuration not stated) | 7.08 µM [falling, partial curve] | 
COc1ccc2nc(NC(=O)C(NS(=O)(=O)c3cccc4nsnc34)C(C)C)sc2c1 (configuration not stated) | 22.4 µM [falling, single point] | 35.5 µM [falling, single point]
CN(C)/C=N/c1cc(=O)[nH]c(=O)n1C | 4.47 µM [falling, partial curve] | 5.01 µM [falling, partial curve, poor fit]
O=C(CN1C(=O)COc2ccc(S(=O)(=O)NC3CCCC3)cc21)Nc1ccc(Cl)cc1 | 35.5 µM [rising, single point] | 
O=C(COC(=O)c1cccs1)c1ccccc1 | 4.47 µM [rising, partial curve] | 
CC(=O)Nc1ccc(NC2=C(Cl)C(=O)c3ccccc3C2=O)cc1 |  | 14.1 µM [falling, single point]
CC1=C(C(=O)OCc2ccccc2)C(c2ccsc2)NC(=O)N1C (configuration not stated) |  | 0.282 µM [falling, full curve]
Cc1cc(=O)oc2cc(Nc3ccccc3)ccc12 | 20 µM [rising, partial curve, poor fit] | 
COc1cccc(CNC(=O)c2ccc3c(c2)nc2n3CCOC2)c1 |  | 0.0224 µM [rising, partial curve, poor fit]
Cc1oc(=O)oc1CN1CCN(c2cc3c(cc2F)c(=O)c(C(=O)O)c2n3C(C)S2)CC1 (configuration not stated) | 12.6 µM [rising, partial curve] | 14.1 µM [rising, partial curve, poor fit]
COc1ccccc1NC(=O)CN1C(=O)C2(SCC(=O)N2c2ccc(F)c(F)c2)c2ccccc21 (configuration not stated) | 31.6 µM [falling, partial curve, poor fit] | 8.91 µM [falling, full curve, poor fit]
CCN1C(=O)/C(=C/c2nc3ccccc3c(=O)n2-c2ccccc2)c2ccccc21 | 3.16 µM [rising, full curve, poor fit] | 
